From patent US20250281585A1
Results are given in words; binding and its absence hold for the method and conditions named. Some binding calls cover weakened binding; strength is not graded here. Where a sequence is shown, tags or fusion partners need not be part of it.

Molecular target: T1, recombinant mouse IL-1RI Fc chimera (R&D 771-MR-100) (mouse) (UniProt P13504)
T1 sequence (looked up): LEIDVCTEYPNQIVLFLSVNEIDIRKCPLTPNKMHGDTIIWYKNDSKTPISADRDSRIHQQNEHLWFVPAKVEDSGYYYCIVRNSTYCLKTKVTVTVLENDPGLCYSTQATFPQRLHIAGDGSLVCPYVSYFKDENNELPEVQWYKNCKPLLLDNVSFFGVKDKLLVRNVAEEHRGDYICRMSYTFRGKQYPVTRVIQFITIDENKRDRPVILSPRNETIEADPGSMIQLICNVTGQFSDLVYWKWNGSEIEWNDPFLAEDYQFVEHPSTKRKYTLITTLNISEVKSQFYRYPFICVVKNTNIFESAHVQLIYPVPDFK
Assay: ELISA on coated mouse IL-1RI Fc chimera, biotinylated anti-fIL-1β detection antibody

B1: commercially available recombinant feline IL-1β protein (R&D Systems 1796-FL-010) (ligand, UniProt P41687 116-267, looked up)
chain: AAIQSQDYTFRDISQKSLVLSGSYELRALHLNGQNMNQQVVFRMSFVHGEENSKKIPVVLCIKKNNLYLSCVMKDGKPTLQLEMLDPKVYPKKKMEKRFVFNKTEIKGNVEFESSQFPNWYISTSQAEEMPVFLGNTKGGQDITDFIMESAS
binding: binds
